Results reported in US20260258149A1.
These are yes or no findings as the source states them, for the method shown. Binding can be weak; no strength is given.

Legend:
[1] = molecular target: Bovine Submaxillary Mucin (BSM) (bovine); experiment: ELISA on BSM, OD against antibody concentration
[2] = molecular target: Bovine Submaxillary Mucin (BSM) (bovine); experiment: ELISA, plate coated with BSM at 3 ug/mL, absorbance at 450 nm normalised to percent of dose response effect

binding [1]: binds | binding [2]: binds
B1: humanized anti-STn antibody clone V1 (antibody, V domains shown)
VH: QVQLQESGPGLVKPSQTLSLTCTVIGYSITSGYYWNWIRQPPGKGLEWIGSINYDGSNIYNPSLKSRVTISRDTSKNQFSLKLSSVTAADTAVYYCARGGDYWGQGTTVTVSS
VL: EIVLTQSPATLSLSPGERATLSCSASSSVSYMHWFQQKPGQAPRRWIYDTSKRATGVPARFSGSGSGTDYTLTISSLEPEDFAAYYCQQWSSDPPMLTFGGGTKLEIK
